Numbering of substitutions follows the chain as printed. Results are given in words; binding and its absence hold for the method and conditions named. Binding seen in cells or lysates may run through a third protein. Some entries that bind do so weakly or less than the wild type. For some of these results: Sequences can lack the tags named with a protein.
Columns and labels:
[1] = target: T1, HA-THRAP3 S243D (phosphorylation-mimic) (UniProt Q9Y2W1); test: co-IP; HA-THRAP3 S243D co-expressed with WT or S273A Flag-PPARγ in HEK293T; IP with anti-HA antibody; blot with anti-Flag
T1 sequence: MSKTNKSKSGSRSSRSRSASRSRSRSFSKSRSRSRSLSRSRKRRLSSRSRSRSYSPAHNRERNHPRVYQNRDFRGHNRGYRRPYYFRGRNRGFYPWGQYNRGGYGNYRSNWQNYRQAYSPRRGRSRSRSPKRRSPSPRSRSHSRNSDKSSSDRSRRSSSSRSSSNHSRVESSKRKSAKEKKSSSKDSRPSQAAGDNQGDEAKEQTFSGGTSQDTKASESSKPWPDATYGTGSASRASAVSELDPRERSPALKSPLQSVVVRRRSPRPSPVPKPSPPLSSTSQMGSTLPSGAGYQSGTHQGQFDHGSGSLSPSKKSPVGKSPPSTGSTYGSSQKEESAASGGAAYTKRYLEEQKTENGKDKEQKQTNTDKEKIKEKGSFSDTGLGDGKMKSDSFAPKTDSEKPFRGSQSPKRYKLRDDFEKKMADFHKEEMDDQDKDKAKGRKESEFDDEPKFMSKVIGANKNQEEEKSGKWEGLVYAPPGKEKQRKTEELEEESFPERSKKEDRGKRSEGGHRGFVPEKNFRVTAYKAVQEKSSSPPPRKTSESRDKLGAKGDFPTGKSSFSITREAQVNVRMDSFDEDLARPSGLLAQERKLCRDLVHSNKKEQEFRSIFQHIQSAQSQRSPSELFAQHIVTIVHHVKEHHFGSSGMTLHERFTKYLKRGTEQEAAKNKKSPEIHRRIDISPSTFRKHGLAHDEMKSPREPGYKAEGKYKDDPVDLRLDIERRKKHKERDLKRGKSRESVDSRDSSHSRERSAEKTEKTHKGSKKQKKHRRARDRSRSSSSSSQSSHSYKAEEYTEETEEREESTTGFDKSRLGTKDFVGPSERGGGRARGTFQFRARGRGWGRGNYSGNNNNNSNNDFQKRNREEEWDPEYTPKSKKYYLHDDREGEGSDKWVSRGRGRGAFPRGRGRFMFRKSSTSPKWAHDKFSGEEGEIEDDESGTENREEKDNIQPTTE

Sequences of proteins named here, by UniProt entry; tags and fusion partners are left off.
UniProt P49759: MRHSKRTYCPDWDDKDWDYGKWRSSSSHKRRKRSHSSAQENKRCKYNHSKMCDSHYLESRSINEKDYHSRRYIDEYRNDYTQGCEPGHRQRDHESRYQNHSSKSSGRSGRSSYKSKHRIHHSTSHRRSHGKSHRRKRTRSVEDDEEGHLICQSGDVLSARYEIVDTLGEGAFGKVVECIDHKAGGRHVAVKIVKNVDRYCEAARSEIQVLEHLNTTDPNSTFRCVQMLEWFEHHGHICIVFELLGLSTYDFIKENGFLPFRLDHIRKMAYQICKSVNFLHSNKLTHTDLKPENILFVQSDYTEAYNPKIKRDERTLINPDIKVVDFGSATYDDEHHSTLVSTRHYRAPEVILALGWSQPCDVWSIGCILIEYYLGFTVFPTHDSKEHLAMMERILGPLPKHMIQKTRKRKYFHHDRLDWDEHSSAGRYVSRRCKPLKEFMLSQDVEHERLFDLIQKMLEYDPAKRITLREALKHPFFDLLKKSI
UniProt P37231: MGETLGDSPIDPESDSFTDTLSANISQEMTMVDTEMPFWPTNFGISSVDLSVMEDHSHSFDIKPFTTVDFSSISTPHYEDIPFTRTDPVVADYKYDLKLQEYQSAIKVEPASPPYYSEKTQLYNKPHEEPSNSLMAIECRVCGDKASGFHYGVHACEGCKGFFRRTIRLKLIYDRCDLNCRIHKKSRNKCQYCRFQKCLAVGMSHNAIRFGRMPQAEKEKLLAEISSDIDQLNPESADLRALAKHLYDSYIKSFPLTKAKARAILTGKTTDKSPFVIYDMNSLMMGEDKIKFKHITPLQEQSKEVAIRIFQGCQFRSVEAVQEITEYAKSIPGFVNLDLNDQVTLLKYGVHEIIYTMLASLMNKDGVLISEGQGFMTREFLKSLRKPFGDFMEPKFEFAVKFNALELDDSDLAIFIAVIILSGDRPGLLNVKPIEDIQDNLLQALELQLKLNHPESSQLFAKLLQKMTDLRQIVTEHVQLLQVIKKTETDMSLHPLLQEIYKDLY

Flag-tagged CLK1 [2] = target: Flag-tagged CLK1 (UniProt P49759); test: co-IP; Flag-tagged CLK1 transfected into HEK293T, pulled down with anti-Flag antibody after 48 h; THRAP3 detected by western blot
[3] = target: Flag-PPARγ (peroxisome proliferator-activated receptor gamma), WT (UniProt P37231); test: co-IP; HA-tagged THRAP3 (WT, S243A or S243D) co-transfected with Flag-PPARγ into HEK293T; Flag-mediated co-IP; western blot
Flag-tagged CLK1 [4] = target: Flag-tagged CLK1 (UniProt P49759); test: co-IP; Flag-tagged CLK1 and HA-tagged THRAP3 (WT, ΔN, ΔC or ΔNC) co-transfected into HEK293T; IP with anti-Flag antibody-conjugated agarose beads; blot with anti-HA

Molecule: Flag-PPARγ (peroxisome proliferator-activated receptor gamma), WT (from UniProt P37231 1-505)
- binding [1]: binds

B1: thyroid hormone receptor-associated protein 3 (THRAP3) (protein, UniProt Q9Y2W1 1-955)
chain: T1 sequence with D243S
- binding (Flag-tagged CLK1 [2]): binds

B2: HA-tagged THRAP3 full length (WT) (protein, UniProt Q9Y2W1 1-955)
chain: T1 sequence with D243S
- binding [3]: binds
- binding (Flag-tagged CLK1 [4]): binds
